For assay [1], the target named is GST-fused 14-3-3 protein Bmh2 (yeast) (UniProt P34730). Kind of assay: pull-down; GST-Bmh2 pulled down from lysates of yeast cells (MA025) grown on glucose proline medium, collected before and after addition of FTY720 (10 μM); Bul1-FLAG detected by anti-FLAG immunoblot. In general terms: In western blotting, separated proteins are transferred to a membrane and probed.

Chains of the proteins cited; added tags and fusions are not shown.
UniProt P34730: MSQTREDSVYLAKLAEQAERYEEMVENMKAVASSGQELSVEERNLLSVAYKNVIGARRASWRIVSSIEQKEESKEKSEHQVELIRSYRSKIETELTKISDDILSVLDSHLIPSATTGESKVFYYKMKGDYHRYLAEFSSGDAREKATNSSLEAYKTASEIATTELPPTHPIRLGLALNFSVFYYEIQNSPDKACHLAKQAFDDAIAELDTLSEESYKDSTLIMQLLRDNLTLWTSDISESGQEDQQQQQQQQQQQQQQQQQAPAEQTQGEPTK

Assay [2] shares this target. Kind of assay: condition: only cells treated with ammonium (50 mM) for 30 min; pull-down; GST-Bmh2 pulled down from lysates of yeast cells (MA025) grown on glucose proline medium and collected 30 min after addition of ammonium (50 mM); Bul1-FLAG detected by anti-FLAG immunoblot.

Results are given in words; binding and its absence hold for the method and conditions named. In cells and extracts the contact can be indirect. Some results given as binding are weak or reduced against the parent protein; the word gives no strength. Where a sequence is shown, tags or fusion partners need not be part of it.

B1: Bul1-FLAG (protein, UniProt P48524 1-976)
chain: MAKDLNDSGFPPKRKPLLRPQRSDFTANSSTTMNVNANTRGRGRQKQEGGKGSSRSPSLHSPKSWIRSASATGILGLRRPELAHSHSHAPSTGTPAGGNRSPLRRSTANATPVETGRSLTDGDINNVVDVLPSFEMYNTLHRHIPQGNVDPDRHDFPPSYQEANNSTATGAAGSSADLSHQSLSTDALGATRSSSTSNLENLIPLRTEHHSIAAHQSTAVDEDSLDIPPILDDLNDTDNIFIDKLYTLPKMSTPIEITIKTTKHAPIPHVKPEEESILKEYTSGDLIHGFITIENKSQANLKFEMFYVTLESYISIIDKVKSKRTIKRFLRMVDLSASWSYSKIALGSGVDFIPADVDYDGSVFGLNNSRVLEPGVKYKKFFIFKLPLQLLDVTCKQEHFSHCLLPPSFGIDKYRNNCKYSGIKVNRVLGCGHLGTKGSPILTNDMSDDNLSINYTIDARIVGKDQKASKLYIMKEREYNLRVIPFGFDANVVGERTTMSQLNDITKLVQERLDALRKIFQRLEKKEPITNRDIHGADLSGTIDDSIESDSQEILQRKLDQLHIKNRNNYLVNYNDLKLGHDLDNGRSGNSGHNTDTSRAWGPFVESELKYKLKNKSNSSSFLNFSHFLNSSSSSMSSSSNAGKNNHDLTGNKERTGLILVKAKIPKQGLPYWAPSLLRKTNVFESKSKHDQENWVRLSELIPEDVKKPLEKLDLQLTCIESDNSLPHDPPEIQSITTELICITAKSDNSIPIKLNSELLMNKEKLTSIKALYDDFHSKICEYETKFNKNFLELNELYNMNRGDRRPKELKFTDFITSQLFNDIESICNLKVSVHNLSNIFKKQVSTLKQHSKHALSEDSISHTGNGSSSSPSSASLTPVTSSSKSSLFLPSGSSSTSLKFTDQIVHKWVRIAPLQYKRDINVNLEFNKDIKETLIPSFESCLCCRFYCVRVMIKFENHLGVAKIDIPISVRQVTK
On to B1, for which the binding result is on record as “binds” in assay [1] and “no binding” in assay [2].
